No constants are given. Whether binding was seen depends on the method and setting. Binding calls can cover weak binding; strength is not graded here.
Biological target: T1, fluorescein-labeled AID peptide, fluorescein-…-COOH
T1 sequence (peptide, fluorescein attached at the amino-terminus): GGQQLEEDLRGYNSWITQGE
Experiment: fluorescence polarization, NusA-domain II fusion incubated with TEV protease and labeled peptide

binding: binds
Substance: VDCC β2a domain II (rabbit)

From patent US20050288489A1 (published 2005)
